Our source for the binding values is paper PMC5349226.

The experiment has as its target T1, Mia40 (baker's yeast (in mitochondria of strains derived from YPH499)) (UniProt P36046).
T1 sequence: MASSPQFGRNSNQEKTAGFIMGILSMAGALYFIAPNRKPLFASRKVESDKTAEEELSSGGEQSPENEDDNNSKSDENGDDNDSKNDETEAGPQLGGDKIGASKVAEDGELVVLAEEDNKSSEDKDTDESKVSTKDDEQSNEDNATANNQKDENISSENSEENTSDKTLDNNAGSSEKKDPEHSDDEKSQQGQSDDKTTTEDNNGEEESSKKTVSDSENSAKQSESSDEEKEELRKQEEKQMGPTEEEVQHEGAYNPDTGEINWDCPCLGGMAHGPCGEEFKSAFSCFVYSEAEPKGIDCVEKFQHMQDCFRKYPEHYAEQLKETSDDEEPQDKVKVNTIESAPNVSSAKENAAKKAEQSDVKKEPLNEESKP
Description: co-IP; 35S-labelled proteins imported for 2 min into isolated Mia40-upregulated mitochondria; mitochondria treated with 150 mM NEM and lysed; immunoprecipitation with Mia40-specific antibodies or preimmune serum; SDS-PAGE with or without beta-mercaptoethanol, autoradiography (detects mixed disulfides).

Results are given in words; binding and its absence hold for the method and conditions named. Binding seen in cells or lysates may run through a third protein. Some results given as binding are weak or reduced against the parent protein; the word gives no strength.

As for “IMS-targeted Dre2 (from UniProt P36046 1-70; P36152 1-348)”, the binding result is given as “no binding”.

B1: Tim9 (protein, UniProt O74700 1-87)
chain: MDALNSKEQQEFQKVVEQKQMKDFMRLYSNLVERCFTDCVNDFTTSKLTNKEQTCIMKCSEKFLKHSERVGQRFQEQNAALGQGLGR
modifications: 35S-methionine (radiolabel)
Take B1: the binding entry is “binds”.
